{"source": "patent US20240366649A1", "about": "“4-ETHYNYL-3-HYDROXY-TETRAHYDROFURANYL-ADENINE PHOSPHORAMIDATES AND RELATED COMPOUNDS AND THEIR USE IN TREATING MEDICAL CONDITIONS” (ROME THERAPEUTICS, INC., priority 2021, published 2024)", "system": "IFN production in THP1 TREX1 KO cells", "test": "Cellular assay for altering IFN production in THP1 TREX1 KO cells", "conditions": "lowest concentration at which the maximum-fold IFN induction was observed", "experimental": "THP1-Dual™ KO-TREX1 cells were purchased from Invivogen (cat #thpd-kotrex). The THP1-Dual™ KO-TREX1 cells were cultured in RPMI 1640, 10% heat-inactivated fetal bovine serum, 25 mM HEPES, 10 μg/mL Blasticidin, and […] Zeocin. THP1-Dual™ KO-TREX cells were treated with a dose titration of test compound in the presence of 1 μM 5-aza-2′-deoxycytidine (Sigma, cat #189825). Type 1 Interferon and cell viability were assessed after five days of treatment.\nStock solution of test compound was prepared in DMSO followed by a three-fold dilution in DMSO. Additional 50× dilution was prepared in cell culture media for each dilution. 10 μL of diluted test compound was then added to a 384-well plate.\nTHP1-Dual™ KO-TREX1 cells were treated with 1 μM 5-aza-2′-deoxycytidine. THP1-Dual™ KO-TREX1 cells (50 μL) were added to each well of the 384-well plate containing test compound titration at 10,000 cells/well. Cells were incubated at 37° C., 5% CO2 in a humidified incubator for five days. On day five, 20 μL of cell supernatant was transferred to a 384-well, white-walled plate, followed by addition to each well of 50 μL of QUANTI-LUC solution containing stabilizer. Luminescence was detected on a plate reader according to manufacturer's instructions. […]", "note": "A number of entries come with more than one value. This is not the full list of results. An entry can have further records. Values given together seem to repeat one measurement (runs, samples, wells or individuals).", "data": [{"smiles": "C#C[C@]1(COP(=O)(N[C@@H](C)C(=O)OCc2ccccc2)Oc2ccccc2)O[C@@H](n2cnc3c(N)nc(Cl)nc32)C[C@@H]1O", "note": "(stereo partly shown)", "values": [{"measurement": "Concentration at Max Induct.", "result": "10 μM and 3.3 μM"}]}]}
